Measurements: publication PMC12886896
No constants are given. Whether binding was seen depends on the method and setting. Binding calls can cover weak binding; strength is not graded here. Where a sequence is shown, tags or fusion partners need not be part of it.

By UniProt entry, the sequences of proteins in these tests, tags left out. Where a name states a change or a piece, a line headed by the entry shows the natural chain unless it says otherwise.
UniProt Q9U2G8: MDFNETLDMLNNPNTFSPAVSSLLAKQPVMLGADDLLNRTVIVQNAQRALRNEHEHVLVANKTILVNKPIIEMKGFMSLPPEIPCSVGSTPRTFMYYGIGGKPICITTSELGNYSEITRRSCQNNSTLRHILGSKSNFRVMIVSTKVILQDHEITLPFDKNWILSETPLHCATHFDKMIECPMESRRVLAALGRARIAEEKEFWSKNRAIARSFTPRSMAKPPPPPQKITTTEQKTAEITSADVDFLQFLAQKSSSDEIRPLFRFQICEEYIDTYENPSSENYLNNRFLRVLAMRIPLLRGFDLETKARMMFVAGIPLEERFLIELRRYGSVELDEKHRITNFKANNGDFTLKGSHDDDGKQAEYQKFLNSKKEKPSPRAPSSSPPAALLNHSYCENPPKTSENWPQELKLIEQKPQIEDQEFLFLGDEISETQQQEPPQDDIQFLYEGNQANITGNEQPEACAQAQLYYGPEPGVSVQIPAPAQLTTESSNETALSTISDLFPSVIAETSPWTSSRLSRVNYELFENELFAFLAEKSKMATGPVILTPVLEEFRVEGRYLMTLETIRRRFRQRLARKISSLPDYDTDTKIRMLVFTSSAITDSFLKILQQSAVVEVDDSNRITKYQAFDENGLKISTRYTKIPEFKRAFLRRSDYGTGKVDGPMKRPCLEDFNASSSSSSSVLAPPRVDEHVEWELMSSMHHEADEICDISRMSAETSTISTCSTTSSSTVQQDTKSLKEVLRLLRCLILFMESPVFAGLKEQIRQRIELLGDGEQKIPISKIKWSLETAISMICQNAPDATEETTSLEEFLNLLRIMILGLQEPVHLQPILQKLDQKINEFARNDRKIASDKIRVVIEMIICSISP

B1: MBP-tagged full-length HCF-1 (protein, UniProt G5EC23 1-782)
chain: MDEDVGLEATNYSRGDESRSEEQEKNVVRWRIVQQSTGPNPKPRHGHRAVVLKELIVIFGGGNEGMIDELHAYNTQKREWTAPQCCGDVPTPAAAFGAISLGNKIYRFGGMTEYGKYTNDLYELQSTRWEWRRLNPRVHSNGHLPCPRIGHSFVVSQKSQKAYVFGGLSNDLNDPKRNVPHYLDDLYVINLSGPQHLIWEKLNATGPGPISRESHTAVIYEKDSISRMVVYGGMNGVRLGDLWYLNLNTLHWTEIKFDDPRTGIPPMPRSLHSSVLIGDKMFVYGGWVPLLEHASTEQQTEKEWKCTSSLGCWNITEDRWVPLHLYCSDEDTIPRGRAGHCAAAVGDRMYIWSGRDGYRKAWSNQVCCRDMWLLDTILPEQPGKVQLGRAGFNSLEISWPIVQGASGYFLQIGFGDAKEQSVSPIKRATTSPRKQPSIVPPSQKETEQSPKKPQGTAPSIISTQGTTYTAPADPKPATDEGGLPQDLFEDTEKNETASPKRSNDAQSADSSTCEQKKTDESGLEEDSEKDQKPSDAGETDEMKEENGDDDLPWFDVGIIDKATINVTHYFNDRQQSLEKQLNDLIDHNAFKCVNDSVFTTEDKIPLINGQSYRFRVSAINGLGKGAWSETASCKTCVPGYPSAPSSIRITKSHEGAQLTWEPPSNTNISGKIIEYSVYLAVKNQSANSADSQLAFMRVYCGPQADCQVLQSNLGTAFVDQTNKPAIIFRIAARNEKGYGPATQVRWLQDQQKIPVRTNYPNNSGFIYQQHGGQQKRARFDHQ
B2: MBP-tagged H1 N-terminal fragment of HCF-1 (1-378aa) (domain or fragment, UniProt G5EC23 1-378)
chain: MDEDVGLEATNYSRGDESRSEEQEKNVVRWRIVQQSTGPNPKPRHGHRAVVLKELIVIFGGGNEGMIDELHAYNTQKREWTAPQCCGDVPTPAAAFGAISLGNKIYRFGGMTEYGKYTNDLYELQSTRWEWRRLNPRVHSNGHLPCPRIGHSFVVSQKSQKAYVFGGLSNDLNDPKRNVPHYLDDLYVINLSGPQHLIWEKLNATGPGPISRESHTAVIYEKDSISRMVVYGGMNGVRLGDLWYLNLNTLHWTEIKFDDPRTGIPPMPRSLHSSVLIGDKMFVYGGWVPLLEHASTEQQTEKEWKCTSSLGCWNITEDRWVPLHLYCSDEDTIPRGRAGHCAAAVGDRMYIWSGRDGYRKAWSNQVCCRDMWLLDTIL
B3: MBP-tagged C-terminal fragment of HCF-1 (379–782aa) (domain or fragment, UniProt G5EC23 379-782)
chain: PEQPGKVQLGRAGFNSLEISWPIVQGASGYFLQIGFGDAKEQSVSPIKRATTSPRKQPSIVPPSQKETEQSPKKPQGTAPSIISTQGTTYTAPADPKPATDEGGLPQDLFEDTEKNETASPKRSNDAQSADSSTCEQKKTDESGLEEDSEKDQKPSDAGETDEMKEENGDDDLPWFDVGIIDKATINVTHYFNDRQQSLEKQLNDLIDHNAFKCVNDSVFTTEDKIPLINGQSYRFRVSAINGLGKGAWSETASCKTCVPGYPSAPSSIRITKSHEGAQLTWEPPSNTNISGKIIEYSVYLAVKNQSANSADSQLAFMRVYCGPQADCQVLQSNLGTAFVDQTNKPAIIFRIAARNEKGYGPATQVRWLQDQQKIPVRTNYPNNSGFIYQQHGGQQKRARFDHQ

Assays:
Assay in all cases: pull-down; GST-tagged proteins immobilised on GST beads, incubated with MBP-tagged proteins in 20 mM Tris-HCl pH 7.5, 150 mM KCl, 2 mM MgCl2, 1 mM DTT, 0.01% Triton-X 100, 5% glycerol, room temperature 1 h; 10 washes; Western blot with anti-MBP; both purified
[1] = target: GST-tagged full-length SET-24 (C. elegans) (UniProt Q9U2G8)
[2] = target: GST-tagged SET-24 fragment S7 (SET domain alone) (C. elegans)
[3] = target: GST-tagged SET-24 fragment S8 (fragment S5 with the SET domain deleted in-frame) (C. elegans)

Binder	binding [1]	binding [2]	binding [3]
B1	binds		
B2	binds	binds	binds
B3	no binding		
